Laboratory results published in US10446758B2, “Hole transporting material, OLED display panel and electronic device comprising the same” (SHANGHAI TIANMA AM-OLED CO., LTD., priority 2016, dated 2019).

Assays:
Mask cleaning effect = settings: time for complete cleaning of red light MASK of hole transporting layer, ultrasonic 40 kHz, 25° C.
Method: (3) Mask Cleaning Effect:
the time required for all the materials on the MASK of the red light of the hole transporting layer 203 to be completely cleaned at a fixed ultrasonic frequency of 40 kHz and at a temperature of 25° C.

[1] = Hole mobility rate of the hole transporting material/layer; type: physicochemical; settings: hole transporting layer material
[2] = Crosstalk test of OLED display panel (LGreen/LBlue); settings: B screen in a dark room, intensity ratio of green light of adjacent pixels at blue light intensity 0.1 Cd/m^2
Method: An OLED display panel having the structure shown in FIG. 2 was prepared by the following process.
Performance tests of the OLED display panels in the Examples and Comparison Examples were carried out.
(2) Crosstalk test method: the program being transferred to the B screen in a dark room, testing the intensity ratio of the green light of adjacent pixels when the blue light intensity was 0.1 Cd/m^2, LGreen/LBlue;

Row | SMILES | Mask cleaning time (Mask cleaning effect) | hole mobility rate [1] | LGreen/LBlue [2]
1 | c1ccc(-c2ccc(N(c3ccc(-c4ccccc4)cc3)c3ccc(-c4ccc(N(c5ccc(-c6ccccc6)cc5)c5ccc(-c6ccccc6)cc5)cc4)cc3)cc2)cc1 [Comparison Example 1] | 80 s | 3×10^−4 cm^2/V·S | 1.5%
2 | c1ccc(-c2ccc(N(c3ccc(-c4ccccc4)cc3)c3ccc(N(c4ccc(-c5ccccc5)cc4)c4ccc(-c5ccccc5)cc4)cc3)cc2)cc1 [Comparison Example 2] | 65 s | – | 1.7%
3 | Cc1cccc(-c2ccc(N(c3ccc(-c4cccc(C)c4)cc3)c3ccc(-c4cc(C)c(N(c5ccc(-c6cccc(C)c6)cc5)c5ccc(-c6cccc(C)c6)cc5)c(C)c4)cc3)cc2)c1 [Example 1] | 20 s | 2×10^−4 cm^2/V·S | 1.9%
